Measured values taken from patent US20060286066A1 (published 2006).
Results are given in words; binding and its absence hold for the method and conditions named. Some binding calls cover weakened binding; strength is not graded here.

Molecular target: hen egg white lysozyme (hen, UniProt P00698 19-147)
Test: batch binding to lysozyme-Sepharose affinity resin, SDS-PAGE read-out
Procedure: A HEL4 affinity based resin (based on the antigen, hen egg white lysozyme) was produced to test the functionality of the PEGylated dAb. Lysozyme was coupled to NETS activated Sepharose 4B resin (Amersham Pharmacia) following the manufacturer's instructions. The PEGylated samples (5 μg) were then mixed with the affinity resin (100 μl) and allowed to bind in PBS at room temperature for 30 mins. The resin was then extensively washed with PBS (3×1 ml) to remove unbound protein. The affinity resin was then run on a SDS-PAGE to determine if the PEGylated HEL4 had bound to the matrix (see Section 8.3).

binding | Binder
binds | HEL4 PEGylated with THIOL-PEG (protein, THIOL-PEG on a cysteine (position and construct not given)) VH: EVQLLESGGGLVQPGGSLRLSCAASGFRISDEDMGWVRQAPGKGLEWVSSIYGPSGSTYYADSVKGRFTISRDNSKNTLYLQMNSLRAEDTAVYYCASALEPLSEPLGFWGQGTLVTVSS
binds | HEL4 PEGylated with MAL-PEG (protein, MAL-PEG on a cysteine (position and construct not given)) VH: EVQLLESGGGLVQPGGSLRLSCAASGFRISDEDMGWVRQAPGKGLEWVSSIYGPSGSTYYADSVKGRFTISRDNSKNTLYLQMNSLRAEDTAVYYCASALEPLSEPLGFWGQGTLVTVSS
